Assay results taken from article doi:10.1101/2021.10.04.463067.
These are yes or no findings as the source states them, for the method shown. Binding seen in cells or lysates may run through a third protein. Binding can be weak; no strength is given.

By UniProt entry, the sequences of proteins in these tests, tags left out. Where a name states a change or a piece, a line headed by the entry shows the natural chain unless it says otherwise.
UniProt Q9UI95: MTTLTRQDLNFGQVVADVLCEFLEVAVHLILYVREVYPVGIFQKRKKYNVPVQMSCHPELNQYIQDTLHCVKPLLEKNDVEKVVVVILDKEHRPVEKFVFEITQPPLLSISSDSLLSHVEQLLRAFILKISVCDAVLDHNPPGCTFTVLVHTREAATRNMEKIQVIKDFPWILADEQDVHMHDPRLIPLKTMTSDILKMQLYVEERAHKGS
UniProt Q96JM3: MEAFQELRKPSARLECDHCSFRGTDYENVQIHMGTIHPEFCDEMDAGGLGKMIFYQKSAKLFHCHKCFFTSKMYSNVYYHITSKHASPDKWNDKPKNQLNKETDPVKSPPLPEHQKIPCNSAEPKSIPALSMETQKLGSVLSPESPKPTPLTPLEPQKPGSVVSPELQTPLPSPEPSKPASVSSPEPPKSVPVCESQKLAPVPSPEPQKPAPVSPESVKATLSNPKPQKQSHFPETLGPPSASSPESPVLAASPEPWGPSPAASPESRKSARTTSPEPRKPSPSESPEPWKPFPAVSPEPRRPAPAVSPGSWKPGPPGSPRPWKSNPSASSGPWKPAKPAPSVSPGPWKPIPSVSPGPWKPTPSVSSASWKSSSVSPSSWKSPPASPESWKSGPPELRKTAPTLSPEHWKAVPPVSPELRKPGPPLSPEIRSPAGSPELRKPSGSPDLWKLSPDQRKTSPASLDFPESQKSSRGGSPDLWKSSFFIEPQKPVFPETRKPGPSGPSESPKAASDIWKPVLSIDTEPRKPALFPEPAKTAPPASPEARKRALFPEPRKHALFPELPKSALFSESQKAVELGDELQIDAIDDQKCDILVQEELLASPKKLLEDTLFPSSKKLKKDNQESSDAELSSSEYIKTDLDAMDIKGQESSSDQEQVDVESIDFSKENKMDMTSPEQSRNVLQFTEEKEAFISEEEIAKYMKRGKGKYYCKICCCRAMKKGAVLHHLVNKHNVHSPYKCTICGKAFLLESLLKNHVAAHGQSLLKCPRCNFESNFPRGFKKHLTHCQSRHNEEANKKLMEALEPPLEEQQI
UniProt O60673: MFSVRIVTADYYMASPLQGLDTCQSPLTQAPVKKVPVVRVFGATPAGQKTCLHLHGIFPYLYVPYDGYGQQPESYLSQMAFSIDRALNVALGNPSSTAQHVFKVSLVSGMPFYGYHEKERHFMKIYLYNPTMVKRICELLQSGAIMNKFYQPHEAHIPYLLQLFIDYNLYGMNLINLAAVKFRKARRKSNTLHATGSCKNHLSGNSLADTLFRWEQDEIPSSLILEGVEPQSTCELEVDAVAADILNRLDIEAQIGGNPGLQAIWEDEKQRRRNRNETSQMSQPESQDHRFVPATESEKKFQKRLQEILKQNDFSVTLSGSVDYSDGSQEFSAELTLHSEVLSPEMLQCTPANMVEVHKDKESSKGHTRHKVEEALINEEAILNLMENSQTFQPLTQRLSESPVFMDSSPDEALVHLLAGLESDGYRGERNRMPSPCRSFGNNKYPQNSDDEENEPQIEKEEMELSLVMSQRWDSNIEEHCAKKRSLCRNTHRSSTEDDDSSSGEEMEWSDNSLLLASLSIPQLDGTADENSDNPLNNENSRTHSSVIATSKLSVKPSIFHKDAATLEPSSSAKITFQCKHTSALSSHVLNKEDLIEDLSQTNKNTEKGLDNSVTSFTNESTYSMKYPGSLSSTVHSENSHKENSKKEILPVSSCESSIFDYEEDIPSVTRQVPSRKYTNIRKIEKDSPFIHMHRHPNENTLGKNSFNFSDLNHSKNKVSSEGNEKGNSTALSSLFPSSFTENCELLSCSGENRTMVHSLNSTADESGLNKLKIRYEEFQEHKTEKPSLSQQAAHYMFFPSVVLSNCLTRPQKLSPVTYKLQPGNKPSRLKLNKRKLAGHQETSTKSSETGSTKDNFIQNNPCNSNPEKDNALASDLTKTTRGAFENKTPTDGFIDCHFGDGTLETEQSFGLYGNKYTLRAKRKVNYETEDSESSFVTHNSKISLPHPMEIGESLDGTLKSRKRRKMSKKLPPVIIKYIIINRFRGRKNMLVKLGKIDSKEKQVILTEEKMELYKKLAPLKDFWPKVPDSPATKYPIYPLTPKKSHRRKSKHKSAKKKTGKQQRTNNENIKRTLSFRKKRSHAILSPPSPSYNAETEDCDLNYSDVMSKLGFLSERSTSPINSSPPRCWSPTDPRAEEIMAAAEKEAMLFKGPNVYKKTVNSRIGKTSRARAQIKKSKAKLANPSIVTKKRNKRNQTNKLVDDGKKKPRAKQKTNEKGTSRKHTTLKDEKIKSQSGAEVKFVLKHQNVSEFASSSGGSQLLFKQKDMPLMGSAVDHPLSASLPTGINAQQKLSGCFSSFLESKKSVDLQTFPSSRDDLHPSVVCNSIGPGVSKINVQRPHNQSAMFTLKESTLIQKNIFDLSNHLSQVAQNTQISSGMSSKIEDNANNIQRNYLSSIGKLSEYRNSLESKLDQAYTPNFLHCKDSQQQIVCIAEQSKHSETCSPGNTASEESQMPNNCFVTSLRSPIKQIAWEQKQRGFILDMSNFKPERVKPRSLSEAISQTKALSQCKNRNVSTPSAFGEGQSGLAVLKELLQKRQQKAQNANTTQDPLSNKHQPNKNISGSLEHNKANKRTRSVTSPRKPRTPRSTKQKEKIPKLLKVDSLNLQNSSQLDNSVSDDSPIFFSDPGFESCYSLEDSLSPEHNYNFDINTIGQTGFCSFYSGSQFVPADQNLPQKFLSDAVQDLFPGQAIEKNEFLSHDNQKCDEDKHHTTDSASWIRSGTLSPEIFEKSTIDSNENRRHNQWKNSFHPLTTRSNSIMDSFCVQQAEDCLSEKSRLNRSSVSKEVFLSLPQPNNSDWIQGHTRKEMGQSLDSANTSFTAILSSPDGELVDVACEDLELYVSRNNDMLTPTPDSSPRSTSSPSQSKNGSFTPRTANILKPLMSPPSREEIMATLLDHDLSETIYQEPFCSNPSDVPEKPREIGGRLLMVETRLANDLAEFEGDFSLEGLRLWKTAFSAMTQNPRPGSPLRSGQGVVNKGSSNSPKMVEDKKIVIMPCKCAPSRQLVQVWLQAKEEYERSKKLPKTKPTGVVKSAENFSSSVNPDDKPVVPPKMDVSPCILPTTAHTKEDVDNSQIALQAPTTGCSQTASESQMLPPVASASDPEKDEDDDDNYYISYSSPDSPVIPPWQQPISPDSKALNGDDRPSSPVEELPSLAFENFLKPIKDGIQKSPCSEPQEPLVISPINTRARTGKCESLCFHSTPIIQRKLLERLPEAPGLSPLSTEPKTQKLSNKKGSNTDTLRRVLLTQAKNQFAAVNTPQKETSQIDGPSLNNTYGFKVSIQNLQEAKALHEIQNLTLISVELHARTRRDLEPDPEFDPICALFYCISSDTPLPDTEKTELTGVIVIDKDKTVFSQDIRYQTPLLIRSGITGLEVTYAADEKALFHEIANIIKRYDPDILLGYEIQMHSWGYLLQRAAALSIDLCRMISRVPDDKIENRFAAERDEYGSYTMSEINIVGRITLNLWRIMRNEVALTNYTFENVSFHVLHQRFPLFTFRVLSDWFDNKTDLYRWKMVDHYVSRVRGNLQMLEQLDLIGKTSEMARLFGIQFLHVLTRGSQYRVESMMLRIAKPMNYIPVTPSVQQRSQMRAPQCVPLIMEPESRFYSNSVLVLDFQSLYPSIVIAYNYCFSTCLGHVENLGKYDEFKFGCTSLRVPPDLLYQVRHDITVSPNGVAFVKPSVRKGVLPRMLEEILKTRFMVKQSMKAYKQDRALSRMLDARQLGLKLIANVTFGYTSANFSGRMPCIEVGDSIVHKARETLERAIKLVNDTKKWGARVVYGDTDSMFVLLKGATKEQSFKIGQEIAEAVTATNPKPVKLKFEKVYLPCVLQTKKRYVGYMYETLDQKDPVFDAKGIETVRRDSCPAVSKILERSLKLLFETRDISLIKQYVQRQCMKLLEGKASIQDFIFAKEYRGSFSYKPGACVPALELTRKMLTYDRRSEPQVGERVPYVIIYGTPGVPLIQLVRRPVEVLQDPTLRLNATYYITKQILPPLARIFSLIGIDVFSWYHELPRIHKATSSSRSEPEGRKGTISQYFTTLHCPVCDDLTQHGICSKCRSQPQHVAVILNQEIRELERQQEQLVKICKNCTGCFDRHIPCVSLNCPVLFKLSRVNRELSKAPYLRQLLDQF

Tests used:
Experiment in all cases: co-IP
Flag-REV7 wild type = Flag-REV7 wild type (UniProt Q9UI95)
Flag-REV7-T103A = Flag-REV7-T103A (UniProt Q9UI95)
GFP-CHAMP1-ΔFPE = GFP-CHAMP1-ΔFPE (UniProt Q96JM3)
[1] = molecular target: GFP-tagged fragment of REV3 containing the REV7-binding domain (R3BD) (UniProt O60673)

| binding (Flag-REV7 wild type) | binding (Flag-REV7-T103A) | binding (GFP-CHAMP1-ΔFPE) | binding [1] | Substance |
| --- | --- | --- | --- | --- |
| binds | binds |  |  | GFP-tagged fragment of REV3 containing the REV7-binding domain (R3BD) (from UniProt O60673) (domain or fragment) |
|  |  | binds | binds | endogenous REV7 (from UniProt Q9UI95 1-211) |
